Data from PMC3581582.

What was measured:
[1] = target: TbMCM-BP-myc (Trypanosoma brucei) (UniProt Q57V33); assay: co-IP; reciprocal co-IPs from lysates of BF T. brucei expressing epitope-tagged proteins from their endogenous loci; lysis buffer 25 mM Tris-HCl pH 8.0, 1 mM EDTA, 0.5% NP-40, 10% glycerol, 1 mM PMSF, 1 mM DTT; IP and immunoblot with anti-myc or anti-flag
[2] = target: MCM5-flag (Trypanosoma brucei) (UniProt Q385L1); assay: as above

| binding [1] | binding [2] | Substance |
| --- | --- | --- |
| binds | – | MCM5-flag (from UniProt Q385L1) |
| – | binds | TbMCM-BP-myc (from UniProt Q57V33) |

These are yes or no findings as the source states them, for the method shown. In cells and extracts the contact can be indirect. A result given as binding can be weak or reduced; the word gives no strength.
